Results from ChEMBL document CHEMBL3860041, “Synthesis, biological evaluation and molecular modeling study of some new methoxylated 2-benzylthio-quinazoline-4(3H)-ones as nonclassical antifolates” (Bioorg Med Chem Lett, 2016).

Legend:
Assay type in all cases: functional
[1] = test system: Bacillus subtilis; experiment: Antimicrobial activity against Bacillus subtilis IFO 3007 at 200 ug/disc measured after 24 hrs by agar disc-diffusion method
[2] = test system: Staphylococcus aureus; experiment: Antimicrobial activity against Staphylococcus aureus IFO 3060 at 200 ug/disc measured after 24 hrs by agar disc-diffusion method
[3] = test system: Pseudomonas aeruginosa; experiment: Antimicrobial activity against Pseudomonas aeruginosa IFO 3448 at 200 ug/disc measured after 24 hrs by agar disc-diffusion method
[4] = test system: Escherichia coli; experiment: Antimicrobial activity against Escherichia coli IFO 3301 at 200 ug/disc measured after 24 hrs by agar disc-diffusion method

## GENTAMICIN
[1]
  inhibition zone (IZ): 25 mm
[2]
  inhibition zone (IZ): 26.5 mm
[3]
  inhibition zone (IZ): 19 mm
[4]
  inhibition zone (IZ): 20.8 mm
